Data: PMC6222118
Results are given in words; binding and its absence hold for the method and conditions named. Some results given as binding are weak or reduced against the parent protein; the word gives no strength.

T1: peroxiredoxin 2 (Prx 2, cytosolic isoform) (mouse (endogenous in C2C12)), Q61171
T1 chain: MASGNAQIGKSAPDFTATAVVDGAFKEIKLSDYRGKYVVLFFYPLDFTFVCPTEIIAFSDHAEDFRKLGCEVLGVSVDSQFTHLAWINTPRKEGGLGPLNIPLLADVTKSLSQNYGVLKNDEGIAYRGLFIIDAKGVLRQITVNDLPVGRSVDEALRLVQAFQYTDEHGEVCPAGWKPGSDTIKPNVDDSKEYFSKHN


Assays:
[1] = molecular target: T1, peroxiredoxin 2 (Prx 2, cytosolic …); assay: non-reducing SDS-PAGE with Western blot (disulfide-linked dimers); C2C12 myotubes treated with H2O2 boluses (7.5-750 uM, 10 or 30 min) or MitoPQ (5 uM, 0.5-24 h); thiols blocked with 80 mM methyl methanethiosulfonate; RIPA lysis; DTT excluded from sample buffer; % dimer = SI dimer/(SI dimer + SI monomer) x 100; details: remark: other sources report otherwise
[2] = molecular target: peroxiredoxin 3 (Prx 3, mitochondrial matrix isoform) (mouse (endogenous in C2C12)) (UniProt P20108); assay: as above

Binder | binding [1] | binding [2]
peroxiredoxin 2 (Prx 2, cytosolic isoform), Q61171 1-198 (protein) MASGNAQIGKSAPDFTATAVVDGAFKEIKLSDYRGKYVVLFFYPLDFTFVCPTEIIAFSDHAEDFRKLGCEVLGVSVDSQFTHLAWINTPRKEGGLGPLNIPLLADVTKSLSQNYGVLKNDEGIAYRGLFIIDAKGVLRQITVNDLPVGRSVDEALRLVQAFQYTDEHGEVCPAGWKPGSDTIKPNVDDSKEYFSKHN | binds | –
peroxiredoxin 3 (Prx 3, mitochondrial matrix isoform) (protein, UniProt P20108 63-257) TPAVTQHAPYFKGTAVVNGEFKELSLDDFKGKYLVLFFYPLDFTFVCPTEIVAFSDKANEFHDVNCEVVAVSVDSHFSHLAWINTPRKNGGLGHMNITLLSDITKQISRDYGVLLESAGIALRGLFIIDPNGVVKHLSVNDLPVGRSVEETLRLVKAFQFVETHGEVCPANWTPESPTIKPSPTASKEYFEKVHQ | – | binds
